The nature of this assay: qHTS Assay to Find Inhibitors of Chronic Active B-Cell Receptor Signaling. Conditions: ABC-DLBCL IkBa-CBG/CBR reporter, luminescence ratio (green luciferase fused to IkBa over red control in TMD8 lymphoma cells), 4 h. An outline of the steps:
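TMD8 human ABC-DLBCL cells with doxycycline-inducible IκBα–green luciferase fusion and unfused red luciferase, in 0.5% FBS medium; compounds up to 46 uM, 4 h at 37C. Green/red luminescence ratio, filter-overlap corrected, fitted to concentration-response curves.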
(Quantitative high-throughput screening tests each substance at several concentrations.)

The mark [1] stands for this setting: measured here: CBR red luminescence, cell number.

Molecules are shown by their SMILES. This is one part of the list. Shown are side measurements of this screen, not its main read-out; they come without a call. Most of these compounds were active or inconclusive in the main read-out, so they are no random draw. Potencies come from curve fits of mixed quality, noted in brackets.

By AC50 is commonly meant the concentration at which the activity in the assay is half-maximal.

For `CC1=CS(=O)(=O)CC1Sc1nc2ccccc2[nH]1` (stereo not drawn), the AC50 under setting [1] is 2.31 µM [rising, single point]. Same read-out and setting: for `COc1ccc(/C=C2\SC(=S)N(C(Cc3ccccc3)C(=O)O)C2=O)cc1` (stereo not drawn) the value was 3.98 µM [falling, full curve]; for `Clc1ccc(-n2nnc(-c3cccnc3Cl)n2)cc1Cl`, 15.8 µM [falling, single point]; for `Cc1cnc(NC(=O)CSc2nnc(-c3ccncc3)n2C2CCCCC2)s1`, 2 µM [falling, partial curve, poor fit]. The same measure, in the same setting: for `CCOC(=O)c1ccc(COC(=O)CNC(=O)CNC(=O)Cc2ccccc2)cc1` the value was 3.16 µM [rising, partial curve]; for `COc1ccc(N2C(=S)NC(C)(C)CC2(C)c2ccc(OC(C)=O)cc2OC(C)=O)cc1` (stereo not drawn), 20 µM [falling, single point].

As for `Cc1nn(-c2ccccc2)c(C)c1/C=N/NC(=O)c1ccccc1O`, the half-maximal activity concentration (AC50) under setting [1] is 15.8 µM [falling, single point]. Still for that read-out and setting: for `O=C(c1cccs1)N1CCN(c2nc3c(F)cc(F)cc3s2)CC1` the value was 0.58 µM [rising, full curve]; for `O=C(CCc1nnc(-c2ccc3c(c2)OCO3)o1)NC(c1cccnc1)C(F)(F)F` (stereo not drawn), 35.5 µM [falling, single point]; for `O=C(N/N=C/c1cccc(OC(=O)c2ccc3c(c2)OCO3)c1)c1cncc(Br)c1`, 29.1 µM [falling, single point]. Consider `Cc1ccc(F)cc1NC(=O)CN1C(=O)NC2(CCCc3ccccc32)C1=O` (stereo not drawn), for which, under setting [1], the AC50 was 13 µM [falling, partial curve, poor fit]. The same measure, in the same setting: for `CCC(Sc1nnnn1-c1ccccc1)C(=O)Nc1nc2ccccc2s1` (stereo not drawn) the value was 16.4 µM [falling, partial curve]; for `COc1ccc(/C=N/NC(=O)c2ccccc2)cc1CN1CCN(c2ccc(F)cc2)CC1`, 8.91 µM [falling, partial curve]; for `Cc1cccc(NC(=O)CC2SC(=NC3CCCCC3)NC2=O)c1` (stereo not drawn), 29.1 µM [falling, partial curve, poor fit]. On to `O=c1[nH]c2ccc(NCc3ccccc3OCc3ccc(Cl)cc3)cc2[nH]1`, for which the AC50 (measured here: IkBa-CBG green luminescence) was 15.8 µM [falling, partial curve, poor fit]. With `CC(C)(CNC(=O)c1ccc(Br)o1)N1CCOCC1`, the AC50 under setting [1] is 3.98 µM [rising, partial curve, poor fit]. On the same count and under the same terms, the figure for `CCOC(=O)CNC(=O)c1sc(NC(=O)/C=C/c2ccccc2)nc1C` is 8.91 µM [falling, partial curve, poor fit]; for `COc1cccc(-n2nnc3c(=O)n(CC(=O)Nc4ccc(C)cc4)cnc32)c1` it is 11.2 µM [rising, partial curve, poor fit].

(Values after PubChem BioAssay AID493014 (National Center for Advancing Translational Sciences (NCATS), 2011).)
